Data: publication PMC4554727, “Flexible Structure of Peptide-Bound Filamin A Mechanosensor Domain Pair 20–21” (PLoS ONE, 2015)
Results are given in words; binding and its absence hold for the method and conditions named.

Sequences of proteins named here, by UniProt entry; tags and fusion partners are left off. A change or cut given only in a name is not applied to a line headed by its entry. Residues count along the entry.
IgFLNa20–21 (filamin A immunoglobulin-like domains 20–21, residues 2141–2329) (P21333, residues 2141-2329): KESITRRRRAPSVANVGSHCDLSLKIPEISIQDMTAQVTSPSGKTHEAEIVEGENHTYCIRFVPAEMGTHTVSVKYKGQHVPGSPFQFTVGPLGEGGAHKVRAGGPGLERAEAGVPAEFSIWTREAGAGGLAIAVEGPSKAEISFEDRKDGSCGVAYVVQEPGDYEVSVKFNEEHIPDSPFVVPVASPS
IgFLNaΔA20–21 (filamin A domains 20–21 lacking the first β strand of domain 20, residues 2151–2329) (P21333, residues 2151-2329): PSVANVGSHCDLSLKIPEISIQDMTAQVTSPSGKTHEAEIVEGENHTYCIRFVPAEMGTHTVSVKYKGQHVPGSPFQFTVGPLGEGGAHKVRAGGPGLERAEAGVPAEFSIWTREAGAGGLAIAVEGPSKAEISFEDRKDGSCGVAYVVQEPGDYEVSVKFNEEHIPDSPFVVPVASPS

Key:
[1] = target: IgFLNaΔA20–21 (filamin A domains 20–21 lacking the first β strand of domain 20, residues 2151–2329) (UniProt P21333); assay: NMR diffusion (radius of hydration); 30°C; free and migfilin-bound IgFLNaΔA20–21; radii of hydration compared with those predicted for a monomer and a dimer; both purified
[2] = target: IgFLNaΔA20–21 (filamin A domains 20–21 lacking the first β strand of domain 20, residues 2151–2329) (UniProt P21333); assay: SAXS; 277 K; 20 mM Tris pH 8.0, 100 mM NaCl, 10 mM DTT; 1–4 mg/ml IgFLNa20–21 or IgFLNa∆A20–21; two times molar excess of migfilin peptide where added; both purified
[3] = target: IgFLNaΔA20–21 (filamin A domains 20–21 lacking the first β strand of domain 20, residues 2151–2329) (UniProt P21333); assay: crystal structure; hanging drop vapor diffusion at 295 K, equimolar (1 mM) protein-peptide mixture; 0.1 M MES pH 6, 1.9 M (NH4)2SO4, 0.1 M (CH3CO2)3Pr; 2.0 Å; both purified
[4] = target: IgFLNa20–21 (filamin A immunoglobulin-like domains 20–21, residues 2141–2329) (UniProt P21333); assay: SAXS; 277 K; 20 mM Tris pH 8.0, 100 mM NaCl, 10 mM DTT; 1–4 mg/ml IgFLNa20–21 or IgFLNa∆A20–21; two times molar excess of migfilin peptide where added; both purified

binding [1]	binding [2]	binding [3]	binding [4]	Substance
no binding	no binding (tested: 1–4 mg/ml)	no binding		IgFLNaΔA20–21 (filamin A domains 20–21 lacking the first β strand of domain 20, residues 2151–2329) (from UniProt P21333 2151-2329) (domain or fragment)
			no binding (tested: 1–4 mg/ml)	IgFLNa20–21 (filamin A immunoglobulin-like domains 20–21, residues 2141–2329) (from UniProt P21333 2141-2329) (domain or fragment)
